These are yes or no findings as the source states them, for the method shown. Some entries that bind do so weakly or less than the wild type.
Target: VEGF (biotinylated target on streptavidin BLI probe) (UniProt P15692)
Assay: anti-VEGF potency as kd (nM); assay not given, Example 6 describes BLI on biotinylated target

Amino acid sequences for entries named in this document (tags omitted). A change or cut given only in a name is not applied to a line headed by its entry. Chains listed by the source or under a name are the forms on record and can include a tag or linker.
VEGF (biotinylated target on streptavidin BLI probe) (P15692, form named): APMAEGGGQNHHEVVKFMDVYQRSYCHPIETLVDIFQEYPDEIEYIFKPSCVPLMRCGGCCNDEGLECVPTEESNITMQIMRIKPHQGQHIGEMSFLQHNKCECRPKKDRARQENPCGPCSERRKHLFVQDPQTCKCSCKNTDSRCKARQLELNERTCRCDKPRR

binding: binds
B1: E1-1 (VHH)
VHH: EVQLQASGGGFVQPGGSLRLSCAASGGGSDAGTMGWFRQAPGKEREFVSAISWAGTAWRYYADSVKGRFTISRDNSKNTVYLQMNSLRAEDTATYYCALGSYEMDHHYWGQGTQVTVSS
